The test addresses T1, GFP-tagged TBC1D9 WT (human) (UniProt Q6ZT07).
T1 sequence: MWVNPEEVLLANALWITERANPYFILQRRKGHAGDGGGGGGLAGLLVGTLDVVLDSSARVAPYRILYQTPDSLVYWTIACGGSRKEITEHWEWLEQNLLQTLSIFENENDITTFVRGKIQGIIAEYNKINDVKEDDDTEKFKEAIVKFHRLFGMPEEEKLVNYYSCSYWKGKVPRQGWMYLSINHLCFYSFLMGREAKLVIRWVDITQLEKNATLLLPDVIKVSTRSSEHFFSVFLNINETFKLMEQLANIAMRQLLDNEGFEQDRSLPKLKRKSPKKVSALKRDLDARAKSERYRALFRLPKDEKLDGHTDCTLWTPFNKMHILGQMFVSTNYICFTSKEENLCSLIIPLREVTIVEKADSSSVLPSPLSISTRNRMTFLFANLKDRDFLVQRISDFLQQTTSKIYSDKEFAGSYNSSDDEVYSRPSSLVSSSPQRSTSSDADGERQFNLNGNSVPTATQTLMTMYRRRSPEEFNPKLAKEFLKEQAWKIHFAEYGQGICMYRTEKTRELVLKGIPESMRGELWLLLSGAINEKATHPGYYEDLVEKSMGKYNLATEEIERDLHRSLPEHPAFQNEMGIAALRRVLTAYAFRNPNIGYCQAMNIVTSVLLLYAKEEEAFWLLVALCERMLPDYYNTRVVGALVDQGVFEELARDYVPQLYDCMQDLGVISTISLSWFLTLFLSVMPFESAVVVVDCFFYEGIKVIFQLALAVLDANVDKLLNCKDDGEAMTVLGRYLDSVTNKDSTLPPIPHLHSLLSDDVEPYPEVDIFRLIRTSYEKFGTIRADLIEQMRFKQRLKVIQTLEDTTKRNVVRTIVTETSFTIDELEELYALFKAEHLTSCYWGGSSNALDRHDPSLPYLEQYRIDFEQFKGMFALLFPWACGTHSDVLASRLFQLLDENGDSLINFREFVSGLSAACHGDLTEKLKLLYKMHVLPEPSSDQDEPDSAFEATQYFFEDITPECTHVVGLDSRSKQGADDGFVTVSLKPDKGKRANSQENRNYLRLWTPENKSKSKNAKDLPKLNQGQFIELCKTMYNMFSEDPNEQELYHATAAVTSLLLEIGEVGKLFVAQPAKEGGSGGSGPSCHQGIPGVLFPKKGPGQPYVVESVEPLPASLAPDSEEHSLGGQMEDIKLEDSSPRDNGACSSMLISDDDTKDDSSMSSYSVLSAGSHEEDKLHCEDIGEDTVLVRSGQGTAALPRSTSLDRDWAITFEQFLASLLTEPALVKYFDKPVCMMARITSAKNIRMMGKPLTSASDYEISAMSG
Description: affinity purification with mass spectrometry; HEK293T cells transfected with GFP, GFP-TBC1D9 or GFP-TBC1D9 R566K, 48 h, basal conditions; lysates precipitated with GFP-Trap beads; LC-MS/MS (Q-Exactive).

These are yes or no findings as the source states them, for the method shown. In cells and extracts the contact can be indirect. These calls come from enrichment with a bait or labelling near it, and not all partners need be listed. Sequences can lack the tags named with a protein.

B1: Rab29 (protein, UniProt O14966 1-203)
chain: MGSRDHLFKVLVVGDAAVGKTSLVQRYSQDSFSKHYKSTVGVDFALKVLQWSDYEIVRLQLWDIAGQERFTSMTRLYYRDASACVIMFDVTNATTFSNSQRWKQDLDSKLTLPNGEPVPCLLLANKCDLSPWAVSRDQIDRFSKENGFTGWTETSVKENKNINEAMRVLIEKMMRNSTEDIMSLSTQGDYINLQTKSSSWSCC
In the case of B1, the binding entry was “binds”.

The values are drawn from paper PMC12643979.
